Some of the results follow. Results with a measured potency or affinity are listed apart. Where no call is shown, the source marks the result inconclusive.
Tests used:
[1] = Drosophila SCA1 whole organism dose response for polyglutamine toxicity reduction (AID 1595); details: Drosophila SCA1 polyglutamine model, at 1 µM, stronger effect = higher value
PubChem AID 1597 = details: Drosophila SCA1 polyglutamine model, at 1 µM, stronger effect = higher value

Structure (SMILES) | suppression of toxicity [1] | suppression of toxicity (PubChem AID 1597)
CN1C2CCC1CC(OC(=O)C(CO)c1ccccc1)C2 (stereo not given) | 0 | 4.29
CC(C)COCC(CN(Cc1ccccc1)c1ccccc1)N1CCCC1 (stereo not given) | 5.71 | 12.1
C=C(CC)C(=O)c1ccc(OCC(=O)O)c(Cl)c1Cl | 12.9 | 17.1
CCN1CCN(C(=O)NC(C(=O)NC2C(=O)N3C(C(=O)O)=C(CSc4nnnn4C)CSC23)c2ccc(O)cc2)C(=O)C1=O (stereo not given) | 4.29 | 6.42
NC(N)=NCCC[C@@H](NC(=O)[C@@H](N)Cc1ccc(O)cc1)C(=O)O | 5.71 | 11.4
Oc1c(Br)cc(Br)c2cccnc12 | 1.43 | 6.42
CCC(C)C1NC(=O)C(CCNCS(=O)(=O)O)NC(=O)C(NC(=O)C(CCNCS(=O)(=O)O)NC(=O)C(NC(=O)C(CCNCS(=O)(=O)O)NC(=O)CCCCC(C)C)C(C)O)CCNC(=O)C(C(C)O)NC(=O)C(CCNCS(=O)(=O)O)NC(=O)C(CCNCS(=O)(=O)O)NC(=O)C(C(C)CC)NC1=O (stereo not given) | 4.29 | 9.29
Cn1nnnc1SCC1=C(C(=O)O)N2C(=O)C(NC(=O)C(O)c3ccccc3)C2SC1 (stereo not given) | 12.9 | 11.4
CC(C)Oc1ccc2c(=O)cc(-c3ccccc3)oc2c1 | 8.57 | 6.43
CCN(CC)CCOC(=O)C(c1ccccc1)C1CCCCC1 (stereo not given) | 15.7 | 17.1
C[C@]12C=CC(=O)C=C1CCC1C2C(=O)C[C@@]2(C)C1CC[C@]2(O)C(=O)CO (stereo not given in full) | 0 | 2.15
CC(C(=O)O)c1ccc(C(=O)c2cccs2)cc1 (stereo not given) | 5.71 | 4.29
C#C[C@]1(O)CCC2C3CCC4=Cc5oncc5C[C@]4(C)C3CC[C@@]21C (stereo not given in full) | 0 | 3.58
Cc1ccc(C)c(OCCCC(C)(C)C(=O)O)c1 | 7.14 | 8.57
CCCN(CCC)C(=O)C(CCC(=O)O)NC(=O)c1ccccc1 (stereo not given) | 11.4 | 11.4
CCc1cccc2c3c([nH]c12)C(CC)(CC(=O)O)OCC3 (stereo not given) | 0 | 0.715
C[C@]12CCC(=O)C=C1CCC1C2[C@@H](O)C[C@@]2(C)C1CC[C@]2(O)C(=O)CO (stereo not given in full) | 0 | 2.15
Nc1ccc(C(=O)O)c(O)c1 (tested in a mixture with another compound) | 7.14 | 8.57
N[C@@H](Cc1ccc(O)c(O)c1)C(=O)O | 0 | 2.15
CCCNC(=O)NS(=O)(=O)c1ccc(Cl)cc1 | 1.43 | 1.43
OC(c1cc(C(F)(F)F)nc2c(C(F)(F)F)cccc12)C1CCCCN1 (stereo not given) | 0 | 2.15
CC(=O)OCC(=O)[C@@]1(O)[C@H](OC(C)=O)CC2C3CCC4=CC(=O)C=C[C@]4(C)[C@@]3(F)[C@@H](O)C[C@@]21C (stereo not given in full) | 11.4 | 2.15
N=C(N)N | 0 | 3.58

Structure (SMILES) | suppression of toxicity [1] | suppression of toxicity (PubChem AID 1597)
O=C(COc1ccc(Cl)cc1)N1CCN(Cc2ccc3c(c2)OCO3)CC1 | 1.43 | 7.14
COC1=C2C[C@@H](C)C[C@H](OC)[C@H](O)[C@@H](C)/C=C(\C)[C@@H](OC(N)=O)[C@H](OC)/C=C\C=C(/C)C(=O)NC(=CC1=O)C2=O | 0 | 2.86
CC12CC3CC(C)(C1)CC(N)(C3)C2 | 5.71 | 12.1
Cc1ccc(C(=O)C(C)CN2CCCCC2)cc1 (stereo not given) | 1.45 | 2.88
C[n+]1ccccc1/C=N/O | 4.29 | 7.86
O=C(O)CCCCC1SCC2NC(=O)NC21 (stereo not given) | 4.29 | 7.86
CO/N=C(/C(=O)N[C@@H]1C(=O)N2C(C(=O)O)=C(COC(C)=O)CS[C@H]12)c1csc(N)n1 | 0 | 8.57
CC(=O)[C@H]1CCC2C3C[C@H](C)C4=CC(=O)CC[C@]4(C)C3[C@@H](O)C[C@@]21C (stereo not given in full) | 2.88 | 3.58
CS(=O)(=O)c1ccc([C@@H](O)[C@@H](CO)NC(=O)C(Cl)Cl)cc1 | 1.43 | 2.15
NC[C@@H]1O[C@H](OC2[C@@H](O)[C@H](O[C@@H]3[C@H](N)[C@@H](O)C[C@H](N)[C@H]3O[C@H]3O[C@H](CO)[C@@H](O)[C@H](O)[C@H]3N)O[C@@H]2CO)[C@H](N)[C@@H](O)[C@@H]1O (stereo not given in full) | 1.43 | 2.15
CCOC(=O)c1ccc(N)cc1 | 14.3 | 15.7
NC(=O)NC1NC(=O)NC1=O (stereo not given) | 2.86 | 1.43
Nc1nccs1 | 5.71 | 10
O=c1[nH]c(=O)n(C2C[C@@H](O)[C@@H](CO)O2)cc1F (stereo not given in full) | 2.85 | 2.15
Clc1ccc2c(c1)C(N1CCNCC1)=Nc1ccccc1O2 | 1.43 | 4.29
CC(=O)CCC1C2=NC(=C\C3=NC(=C(/C)C4=NC(C)(C5[N-]/C(=C\2C)C(C)(CCC(=O)NCC(C)OP(=O)(O)O[C@@H]2[C@@H](CO)OC(n6cnc7cc(C)c(C)cc76)[C@@H]2O)C5CC(N)=O)C(C)(CC(N)=O)C4CCC(N)=O)/C(C)(CC(N)=O)C3CCC(N)=O)/C1(C)C.[CH2-][C@H]1OC(n2cnc3c(N)ncnc32)[C@H](O)[C@@H]1O.[Co+2] (stereo not given in full) | 0 | 0
NC(N)=O | 7.14 | 8.57
C=Cc1c(C)c2cc3[nH]c(cc4nc(cc5nc(cc1[nH]2)C(C)=C5CCC(=O)O)C(CCC(=O)O)=C4C)c(C)c3C=C | 0 | 1.43
O=c1c(O)c(-c2ccc(O)cc2O)oc2cc(O)cc(O)c12 | 12.9 | 15
Nc1ccc(C(=O)O)cc1 | 2.85 | 17.1
OCC(O)CN1CCN(c2ccccc2)CC1 (stereo not given) | 4.29 | 6.42
CCO/C([O-])=N/c1c[n+](N2CCOCC2)no1 | 7.14 | 4.29
NC(=O)c1ncn([C@@H]2O[C@H](CO)[C@@H](O)[C@H]2O)n1 | 2.85 | 5

Structure (SMILES) | suppression of toxicity [1] | suppression of toxicity (PubChem AID 1597)
CN1C2CC[C@H]1CC(OC(=O)C(O)c1ccccc1)C2 (stereo not given in full) | 4.29 | 7.14
NS(=O)(=O)c1cc2c(cc1Cl)NC=NS2(=O)=O | 1.43 | 1.43
O=C1CCC(N2C(=O)c3ccccc3C2=O)C(=O)N1 (stereo not given) | 12.9 | 13.6
Cc1ccc(O)cc1 | 1.43 | 2.87
CCCCNC(=O)NS(=O)(=O)c1ccc(C)cc1 | 2.85 | 4.29
CC(=O)N=c1sc(S(N)(=O)=O)nn1C | 1.43 | 2.86
OCc1ccccc1O[C@@H]1O[C@H](CO)[C@@H](O)[C@H](O)[C@H]1O | 5.71 | 10
CC1(C)O[C@@H]2CC3C4C[C@H](F)C5=CC(=O)C=CC5(C)C4C(O)CC3(C)[C@]2(C(=O)CO)O1 (stereo not given in full) | 0 | 0
CC(=O)NS(=O)(=O)c1ccc(N)cc1 | 1.43 | 2.15
Oc1ccc(Cl)cc1Cc1cc(Cl)ccc1O | 1.43 | 4.29
CC1(C)S[C@@H]2[C@H](NC(=O)[C@H](NC(=O)N3CCNC3=O)c3ccccc3)C(=O)N2C1C(=O)O (stereo not given in full) | 1.43 | 7.86
Nc1nc2c(ncn2COCCO)c(=O)[nH]1 | 4.29 | 7.86
COc1cc2c(c(OC)c1OC)-c1ccc(OC)c(=O)cc1[C@@H](NC(C)=O)CC2 | 0 | 0
CC(C)(Sc1cc(C(C)(C)C)c(O)c(C(C)(C)C)c1)Sc1cc(C(C)(C)C)c(O)c(C(C)(C)C)c1 | 0 | 2.86
CC(C)CC(NC(=O)CCN)C(=O)O (stereo not given) | 8.57 | 10.7
Nc1ncnc2c1ncn2C1O[C@H](COP(=O)(O)O)[C@@H](O)[C@H]1O (stereo not given in full) | 0 | 2.15
CC(C)[N+]1(C)C2CC[C@@H]1CC(OC(=O)C(CO)c1ccccc1)C2 (stereo not given in full) | 5.71 | 7.86
Cc1nnc(NS(=O)(=O)c2ccc(N)cc2)s1 | 1.43 | 3.58
CCOc1ccc2c(c1)C(C)=CC(C)(C)N2 | 1.43 | 2.85
NC(=O)c1cnccn1 | 21.4 | 20
C1CCC(C(CC2CCCCN2)C2CCCCC2)CC1 (stereo not given) | 0 | 3.58
O=C(O)P(=O)(O)O | 0 | 1.43
O=C(O)c1cc([N+](=O)[O-])ccc1NCCCc1ccccc1 | 0 | 7.14

Structure (SMILES) | suppression of toxicity [1] | suppression of toxicity (PubChem AID 1597)
CC1(C)O[C@@H]2CC3C4CCC5=CC(=O)C=C[C@]5(C)[C@@]4(F)[C@@H](O)C[C@]3(C)[C@]2(C(=O)CO)O1 (stereo not given in full) | 0 | 7.14
CC(=O)NC(Cc1ccccc1)C(=O)O (stereo not given) | 5.71 | 0.715
CS(=O)(=O)Nc1ccc([N+](=O)[O-])cc1Oc1ccccc1 | 20 | 3.57
CN(C)c1nc(N(C)C)nc(N(C)C)n1 | 8.57 | 12.9
Nc1ccc(S(=O)(=O)c2ccc(N)cc2)cc1 | 14.3 | 1.43
CCn1cc(C(=O)O)c(=O)c2cc(F)c(N3CCNC(C)C3)c(F)c21 (stereo not given) | 7.14 | 2.15
c1ccc([C@H]2CN3CCSC3=N2)cc1 | 0 | 2.15
CCCC(=O)Nc1ncnc2c1ncn2C1O[C@@H]2COP(=O)(O)O[C@H]2[C@H]1OC(=O)CCC (stereo not given in full) | 4.29 | 4.29
CO[C@@]12[C@@H]3NC3CN1C1=C(C(=O)C(N)=C(C)C1=O)[C@@H]2COC(N)=O (stereo not given in full) | 0 | 0.715
C=CCc1ccccc1OCC(O)CNC(C)C (stereo not given) | 2.85 | 2.86
O=C(CCCN1CC=C(n2c(=O)[nH]c3ccccc32)CC1)c1ccc(F)cc1 | 8.57 | 11.4
CCOC(N)=O | 2.85 | 1.43
CC[N+](C)(C)c1cccc(O)c1 | 1.43 | 14.3
NS(=O)(=O)c1cc2c(cc1Cl)NC(CSCc1ccccc1)=NS2(=O)=O | 5.71 | 3.58
CN1C2CC[C@@H]1CC(OC(=O)[C@H](CO)c1ccccc1)C2 (stereo not given in full) | 4.29 | 0
CC(=O)Nc1nnc(S(N)(=O)=O)s1 | 7.14 | 5.71
Cc1c(C)c2c(c(C)c1O)CCC(C)(CCCC(C)CCCC(C)CCCC(C)C)O2 (stereo not given) | 2.85 | 11.4
NS(=O)(=O)c1cc2c(cc1Cl)NC(C(Cl)Cl)NS2(=O)=O (stereo not given) | 1.43 | 2.86
O=C(Cn1ccnc1[N+](=O)[O-])NCCO | 7.14 | 12.1
CC[N+](CC)(CC)CCOc1cccc(OCC[N+](CC)(CC)CC)c1OCC[N+](CC)(CC)CC | 15.7 | 24.3
Cn1c(=O)c2[nH]c(C3CCCC3)nc2n(C)c1=O | 0 | 0.715

Quoted at random: 6 compounds from above, in no set order.
Structure (SMILES) | suppression of toxicity [1] | suppression of toxicity (PubChem AID 1597)
CC1(C)O[C@@H]2CC3C4CCC5=CC(=O)C=C[C@]5(C)[C@@]4(F)[C@@H](O)C[C@]3(C)[C@]2(C(=O)CO)O1 (stereo not given in full) | 0 | 7.14
Nc1ccc(S(=O)(=O)c2ccc(N)cc2)cc1 | 14.3 | 1.43
CO[C@@]12[C@@H]3NC3CN1C1=C(C(=O)C(N)=C(C)C1=O)[C@@H]2COC(N)=O (stereo not given in full) | 0 | 0.715
Cc1c(C)c2c(c(C)c1O)CCC(C)(CCCC(C)CCCC(C)CCCC(C)C)O2 (stereo not given) | 2.85 | 11.4
O=C(CCCN1CC=C(n2c(=O)[nH]c3ccccc32)CC1)c1ccc(F)cc1 | 8.57 | 11.4
CCOC(N)=O | 2.85 | 1.43

Source: PubChem BioAssay
